Reference: patent US9434734B2, “Substituted pyrazoloquinazolinones and pyrroloquinazolinones as allosteric modulators of group II metabotropic glutamate receptors” (Domain Therapeutics, priority 2012, dated 2016)

- melting point: 220 to 230 °C
SMILES: Cn1c(=O)c2ccc(-c3cccc(S(N)(=O)=O)c3)cc2n2nc(-c3ccccc3)cc12 [Example 1, 3-(4-Methyl-5-oxo-2-phenyl-4,5-dihydro-pyrazolo[1,5-a]quinazolin-8-yl)-benzenesulfonamide]
